Measured values taken from patent US20050042747A1, “Hivgp120-induced bob/gpr15 activation” (priority 2001, published 2005).
These are yes or no findings as the source states them, for the method shown. Some binding calls cover weakened binding; strength is not graded here.

By UniProt entry, the sequences of proteins in these tests, tags left out. Where a name states a change or a piece, a line headed by the entry shows the natural chain unless it says otherwise.
UniProt P49685: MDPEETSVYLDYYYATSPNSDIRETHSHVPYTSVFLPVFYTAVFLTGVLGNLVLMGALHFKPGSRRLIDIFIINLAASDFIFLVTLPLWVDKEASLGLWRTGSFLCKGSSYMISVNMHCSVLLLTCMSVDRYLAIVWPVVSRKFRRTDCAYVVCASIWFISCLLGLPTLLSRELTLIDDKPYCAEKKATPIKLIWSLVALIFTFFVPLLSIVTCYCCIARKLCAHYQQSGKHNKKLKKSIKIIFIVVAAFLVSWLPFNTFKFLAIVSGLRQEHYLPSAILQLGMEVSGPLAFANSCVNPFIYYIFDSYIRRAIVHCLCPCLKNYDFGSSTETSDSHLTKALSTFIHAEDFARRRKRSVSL

Target: GPR15/Bob (human) (UniProt P49685)
Experiment: immunoprecipitation of gp120 that had been allowed to bind cells

**Q.** Which binding does the source give for “gp120IIIB (from UniProt P03375 33-511) (ligand)” here?
**A.** The binding was “binds”.
